Measurements taken from the supplement of paper PMC11006884.
The entries are a selection whose mix differs from that of the whole data set.

Sequences of proteins named here, by UniProt entry; tags and fusion partners are left off. A change or cut given only in a name is not applied to a line headed by its entry.
UniProt O95801: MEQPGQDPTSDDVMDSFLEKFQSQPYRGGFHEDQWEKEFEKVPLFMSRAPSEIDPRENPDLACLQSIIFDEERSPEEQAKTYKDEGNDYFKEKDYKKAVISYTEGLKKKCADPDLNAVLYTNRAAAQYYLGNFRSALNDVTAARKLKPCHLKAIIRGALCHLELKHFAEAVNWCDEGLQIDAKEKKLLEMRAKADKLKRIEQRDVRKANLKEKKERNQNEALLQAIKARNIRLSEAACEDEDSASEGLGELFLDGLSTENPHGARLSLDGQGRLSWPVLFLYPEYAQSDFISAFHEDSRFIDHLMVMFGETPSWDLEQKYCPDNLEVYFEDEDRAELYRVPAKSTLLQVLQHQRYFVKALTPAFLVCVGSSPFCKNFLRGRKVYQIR
UniProt O95573: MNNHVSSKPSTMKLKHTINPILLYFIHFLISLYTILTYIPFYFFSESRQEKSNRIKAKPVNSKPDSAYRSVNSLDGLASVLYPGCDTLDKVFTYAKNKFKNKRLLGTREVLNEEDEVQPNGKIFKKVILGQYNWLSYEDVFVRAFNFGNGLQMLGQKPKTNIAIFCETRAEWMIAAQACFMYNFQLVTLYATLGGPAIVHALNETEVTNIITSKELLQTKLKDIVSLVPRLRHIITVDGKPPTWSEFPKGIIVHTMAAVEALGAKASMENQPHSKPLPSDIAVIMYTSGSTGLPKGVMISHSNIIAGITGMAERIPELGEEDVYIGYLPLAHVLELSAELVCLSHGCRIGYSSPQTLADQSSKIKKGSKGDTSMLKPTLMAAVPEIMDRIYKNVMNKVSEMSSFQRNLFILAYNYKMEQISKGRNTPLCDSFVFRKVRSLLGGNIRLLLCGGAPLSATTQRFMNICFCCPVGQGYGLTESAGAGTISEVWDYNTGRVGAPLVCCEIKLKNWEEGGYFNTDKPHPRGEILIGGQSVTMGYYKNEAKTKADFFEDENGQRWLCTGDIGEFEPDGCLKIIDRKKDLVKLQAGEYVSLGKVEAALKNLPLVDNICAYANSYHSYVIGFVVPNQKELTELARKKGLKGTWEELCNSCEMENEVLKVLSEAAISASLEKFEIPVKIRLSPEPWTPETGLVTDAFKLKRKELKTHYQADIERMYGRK
UniProt O94885: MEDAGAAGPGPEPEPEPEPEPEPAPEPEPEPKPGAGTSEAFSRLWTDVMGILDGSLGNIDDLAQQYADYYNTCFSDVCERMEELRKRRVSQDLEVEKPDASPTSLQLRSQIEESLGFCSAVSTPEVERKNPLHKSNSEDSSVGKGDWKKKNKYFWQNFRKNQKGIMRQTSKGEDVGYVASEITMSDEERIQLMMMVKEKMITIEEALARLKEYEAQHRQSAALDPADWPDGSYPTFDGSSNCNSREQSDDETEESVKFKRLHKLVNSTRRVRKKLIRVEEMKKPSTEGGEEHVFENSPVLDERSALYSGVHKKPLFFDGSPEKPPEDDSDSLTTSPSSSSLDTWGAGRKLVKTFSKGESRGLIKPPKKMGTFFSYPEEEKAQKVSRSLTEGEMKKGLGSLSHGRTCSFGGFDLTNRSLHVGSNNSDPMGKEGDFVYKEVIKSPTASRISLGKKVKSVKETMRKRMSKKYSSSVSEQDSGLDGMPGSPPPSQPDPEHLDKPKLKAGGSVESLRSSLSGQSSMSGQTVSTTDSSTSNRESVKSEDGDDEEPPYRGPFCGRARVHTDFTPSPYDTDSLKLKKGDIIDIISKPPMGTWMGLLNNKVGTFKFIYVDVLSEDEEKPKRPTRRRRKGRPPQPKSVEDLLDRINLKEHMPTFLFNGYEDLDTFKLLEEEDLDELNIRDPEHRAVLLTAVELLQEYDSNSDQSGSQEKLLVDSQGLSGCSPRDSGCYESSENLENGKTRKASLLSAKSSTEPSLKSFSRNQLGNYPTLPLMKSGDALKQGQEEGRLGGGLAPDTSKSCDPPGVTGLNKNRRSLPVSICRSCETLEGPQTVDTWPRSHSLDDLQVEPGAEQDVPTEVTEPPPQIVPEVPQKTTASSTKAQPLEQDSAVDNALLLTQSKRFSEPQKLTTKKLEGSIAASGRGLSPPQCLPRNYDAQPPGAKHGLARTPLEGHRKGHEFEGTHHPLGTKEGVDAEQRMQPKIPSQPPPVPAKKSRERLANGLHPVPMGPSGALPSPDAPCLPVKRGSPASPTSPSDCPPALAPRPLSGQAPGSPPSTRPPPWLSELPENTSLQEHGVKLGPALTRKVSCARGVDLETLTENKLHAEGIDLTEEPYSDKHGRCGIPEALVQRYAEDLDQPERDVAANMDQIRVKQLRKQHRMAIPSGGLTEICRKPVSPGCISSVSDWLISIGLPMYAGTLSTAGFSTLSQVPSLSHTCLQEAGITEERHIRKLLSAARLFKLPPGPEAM
UniProt O95155, whole entry, looked up: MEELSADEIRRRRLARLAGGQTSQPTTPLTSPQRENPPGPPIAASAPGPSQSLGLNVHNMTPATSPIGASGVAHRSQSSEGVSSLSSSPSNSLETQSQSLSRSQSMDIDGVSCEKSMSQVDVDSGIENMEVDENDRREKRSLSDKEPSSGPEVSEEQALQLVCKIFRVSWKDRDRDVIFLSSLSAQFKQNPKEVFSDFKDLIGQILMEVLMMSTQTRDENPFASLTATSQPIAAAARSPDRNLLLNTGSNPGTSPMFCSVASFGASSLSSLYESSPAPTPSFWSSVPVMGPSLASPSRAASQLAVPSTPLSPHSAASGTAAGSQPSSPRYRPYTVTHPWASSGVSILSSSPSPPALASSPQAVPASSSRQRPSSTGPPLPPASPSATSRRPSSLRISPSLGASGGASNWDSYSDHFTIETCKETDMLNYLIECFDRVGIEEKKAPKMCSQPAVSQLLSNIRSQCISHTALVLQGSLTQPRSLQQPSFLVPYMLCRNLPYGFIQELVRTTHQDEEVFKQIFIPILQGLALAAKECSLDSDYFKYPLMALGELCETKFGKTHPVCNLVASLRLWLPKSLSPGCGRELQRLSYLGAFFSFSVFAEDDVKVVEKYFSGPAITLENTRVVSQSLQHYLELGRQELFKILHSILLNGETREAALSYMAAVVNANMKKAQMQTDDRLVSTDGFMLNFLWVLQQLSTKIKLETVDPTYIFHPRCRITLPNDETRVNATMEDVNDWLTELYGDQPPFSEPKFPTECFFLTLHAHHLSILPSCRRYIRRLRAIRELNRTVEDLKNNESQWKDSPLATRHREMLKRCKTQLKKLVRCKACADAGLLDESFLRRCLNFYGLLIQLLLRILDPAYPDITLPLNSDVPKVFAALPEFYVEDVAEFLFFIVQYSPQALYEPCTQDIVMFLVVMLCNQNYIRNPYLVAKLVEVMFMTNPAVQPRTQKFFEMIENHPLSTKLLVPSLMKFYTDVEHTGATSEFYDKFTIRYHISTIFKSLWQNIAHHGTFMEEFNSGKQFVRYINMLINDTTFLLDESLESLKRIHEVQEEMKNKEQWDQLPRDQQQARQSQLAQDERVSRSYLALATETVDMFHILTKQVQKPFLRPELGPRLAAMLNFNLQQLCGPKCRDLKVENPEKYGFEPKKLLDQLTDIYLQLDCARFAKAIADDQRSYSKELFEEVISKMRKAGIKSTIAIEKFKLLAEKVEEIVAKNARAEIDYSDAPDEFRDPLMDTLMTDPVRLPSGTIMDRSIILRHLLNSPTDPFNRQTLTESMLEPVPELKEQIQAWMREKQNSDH
UniProt O95400: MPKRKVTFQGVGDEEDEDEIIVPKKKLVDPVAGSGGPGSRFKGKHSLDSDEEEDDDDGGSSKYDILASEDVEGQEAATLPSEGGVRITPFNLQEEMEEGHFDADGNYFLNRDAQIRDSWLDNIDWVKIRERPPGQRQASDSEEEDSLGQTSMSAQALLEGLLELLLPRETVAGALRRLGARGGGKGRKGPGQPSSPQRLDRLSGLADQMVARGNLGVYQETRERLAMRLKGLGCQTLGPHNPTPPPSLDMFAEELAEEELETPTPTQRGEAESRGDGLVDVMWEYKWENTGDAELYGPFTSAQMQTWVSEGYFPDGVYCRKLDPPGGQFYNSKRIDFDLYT
UniProt O95336: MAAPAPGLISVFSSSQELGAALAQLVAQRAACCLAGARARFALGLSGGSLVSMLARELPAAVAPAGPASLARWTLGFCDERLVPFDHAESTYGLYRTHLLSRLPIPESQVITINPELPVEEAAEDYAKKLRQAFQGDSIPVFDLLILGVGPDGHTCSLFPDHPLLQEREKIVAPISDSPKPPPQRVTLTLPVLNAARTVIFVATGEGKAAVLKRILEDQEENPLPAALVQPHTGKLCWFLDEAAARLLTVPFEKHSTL
UniProt P04637, whole entry, looked up: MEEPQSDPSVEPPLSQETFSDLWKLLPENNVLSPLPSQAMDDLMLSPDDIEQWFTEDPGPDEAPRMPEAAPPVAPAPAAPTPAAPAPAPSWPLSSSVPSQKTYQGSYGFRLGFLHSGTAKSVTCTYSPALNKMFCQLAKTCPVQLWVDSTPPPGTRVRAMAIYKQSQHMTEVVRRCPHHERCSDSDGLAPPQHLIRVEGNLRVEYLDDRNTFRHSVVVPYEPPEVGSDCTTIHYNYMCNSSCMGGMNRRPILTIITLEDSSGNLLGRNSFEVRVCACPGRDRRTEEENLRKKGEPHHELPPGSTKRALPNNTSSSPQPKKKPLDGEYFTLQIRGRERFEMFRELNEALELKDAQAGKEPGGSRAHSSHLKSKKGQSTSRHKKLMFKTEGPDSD
UniProt P04075: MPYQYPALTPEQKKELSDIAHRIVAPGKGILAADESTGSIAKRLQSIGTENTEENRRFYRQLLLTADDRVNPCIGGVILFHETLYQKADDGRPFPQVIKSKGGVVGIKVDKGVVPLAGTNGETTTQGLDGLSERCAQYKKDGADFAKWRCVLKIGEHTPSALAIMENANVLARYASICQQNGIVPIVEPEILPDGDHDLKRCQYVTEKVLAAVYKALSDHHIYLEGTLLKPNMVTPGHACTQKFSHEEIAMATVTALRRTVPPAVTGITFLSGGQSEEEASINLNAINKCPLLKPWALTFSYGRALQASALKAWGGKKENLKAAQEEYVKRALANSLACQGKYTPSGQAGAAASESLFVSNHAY
UniProt P02545: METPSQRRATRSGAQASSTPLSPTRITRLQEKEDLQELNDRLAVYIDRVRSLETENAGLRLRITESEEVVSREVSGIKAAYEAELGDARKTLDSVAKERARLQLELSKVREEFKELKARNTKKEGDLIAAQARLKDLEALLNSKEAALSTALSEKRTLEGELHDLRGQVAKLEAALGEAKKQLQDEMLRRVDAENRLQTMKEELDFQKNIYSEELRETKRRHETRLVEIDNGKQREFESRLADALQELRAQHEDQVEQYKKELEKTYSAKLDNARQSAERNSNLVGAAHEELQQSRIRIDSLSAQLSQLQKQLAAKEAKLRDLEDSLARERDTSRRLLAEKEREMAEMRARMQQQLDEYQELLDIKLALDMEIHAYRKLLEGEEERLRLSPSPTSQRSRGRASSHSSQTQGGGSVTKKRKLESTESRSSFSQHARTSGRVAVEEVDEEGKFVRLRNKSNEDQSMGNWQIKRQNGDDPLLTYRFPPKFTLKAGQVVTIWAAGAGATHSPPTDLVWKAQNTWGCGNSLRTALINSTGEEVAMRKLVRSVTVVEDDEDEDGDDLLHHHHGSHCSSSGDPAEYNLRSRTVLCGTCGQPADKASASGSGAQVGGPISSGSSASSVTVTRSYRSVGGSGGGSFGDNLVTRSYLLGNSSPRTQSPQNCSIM
UniProt P05386, whole entry, looked up: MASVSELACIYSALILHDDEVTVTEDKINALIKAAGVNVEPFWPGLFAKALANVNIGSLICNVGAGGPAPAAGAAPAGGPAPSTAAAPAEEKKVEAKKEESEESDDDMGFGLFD
UniProt P00966: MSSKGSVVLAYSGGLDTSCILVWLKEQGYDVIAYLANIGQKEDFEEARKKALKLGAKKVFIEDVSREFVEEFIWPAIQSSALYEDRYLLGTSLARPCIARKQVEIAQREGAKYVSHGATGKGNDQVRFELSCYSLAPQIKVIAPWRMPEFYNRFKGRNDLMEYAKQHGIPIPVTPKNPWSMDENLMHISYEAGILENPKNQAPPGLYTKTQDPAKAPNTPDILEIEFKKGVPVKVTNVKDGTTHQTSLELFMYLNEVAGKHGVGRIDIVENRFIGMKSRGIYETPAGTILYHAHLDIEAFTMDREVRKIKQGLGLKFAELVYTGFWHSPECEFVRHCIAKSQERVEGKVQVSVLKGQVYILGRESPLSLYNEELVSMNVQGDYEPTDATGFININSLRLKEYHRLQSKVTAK
UniProt O95551: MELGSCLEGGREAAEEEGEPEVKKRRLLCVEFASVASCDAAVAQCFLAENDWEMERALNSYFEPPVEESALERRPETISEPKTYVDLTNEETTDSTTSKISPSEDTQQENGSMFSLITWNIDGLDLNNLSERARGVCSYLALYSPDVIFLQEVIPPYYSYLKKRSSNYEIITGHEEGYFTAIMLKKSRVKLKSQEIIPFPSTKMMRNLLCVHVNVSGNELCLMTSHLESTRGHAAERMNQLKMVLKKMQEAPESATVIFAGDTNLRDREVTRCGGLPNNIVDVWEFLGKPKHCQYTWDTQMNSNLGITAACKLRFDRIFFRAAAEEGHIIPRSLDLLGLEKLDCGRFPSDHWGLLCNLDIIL

Compound: COC(=O)C#Cc1ccccc1 [methyl 3-phenylpropiolate]
Assay: log2 ratio of iodoacetamide-alkyne labeling of the cysteine site, DMSO over compound (competition); higher = stronger covalent engagement of the cysteine by the compound, active = 1 or more
Conditions: 500 µM; treatment time 1 h; system: HEK293T cell lysate
How it was run: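 For each cysteine, the log2 competition ratio is mean control-channel reporter intensity over mean compound-channel reporter intensity. HEK293T lysate (2 mg/mL) was exposed to vehicle or electrophile (500 µM, 1 h, ambient temperature), labelled with iodoacetamide alkyne (1 h), clicked to sCIP-TMT reagents, digested overnight with trypsin at 37 °C, streptavidin-enriched and analysed by Orbitrap Eclipse LC-MS/MS with FAIMS and FragPipe. Cysteines quantified in only one of three replicates, each with duplicate channels, were excluded.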

log2 ratio of iodoacetamide-alkyne labeling, inactive:
ENO1 C337 (UniProt P06733) 0.17, PPP1R3D C291 (UniProt O95685) 0.488, TTC4 C110 (UniProt O95801) 0.0895, NR3C1 C481 (UniProt P04150) 0.314, ACSL3 C429 (UniProt O95573) 0.052, UniProt O94826_C475 0.22, SASH1 C799 (UniProt O94885) 0.202, TTC4 C238 (UniProt O95801) 0.078, MTA2 C209 (UniProt O94776) 0.19, UBE4B C494 (UniProt O95155) 0.16, UniProt O94763_C443 0.659, MAP4K4 C883 (UniProt O95819) 0.438, CD2BP2 C234 (UniProt O95400) -0.0767, GPX1 C156 (UniProt P07203) 0.0378, HPRT1 C206 (UniProt P00492) 0.0837, CPSF4 C110 (UniProt O95639) -0.138, PCNT C563 (UniProt O95613) 0.197, PGLS C237 (UniProt O95336) 0.156, TP53 C141 (UniProt P04637) 0.359, UniProt O94927_C262 0.162, ALDOA C178 (UniProt P04075) 0.345, EPRS C623 (UniProt P07814) -0.0298, PFN1 C17 (UniProt P07737) -0.417, UBXN7 C478 (UniProt O94888) -0.172, UniProt O95478_C154 0.296, ENO1 C339 (UniProt P06733) -0.315, HERC2 C1005 (UniProt O95714) 0.239, UniProt P04439_C227 0.255, LMNA C570 (UniProt P02545) 0.553, UniProt P07437_C129 0.192, USP19 C833 (UniProt O94966) 0.0294, RPLP1 C9 (UniProt P05386) 0.29, HEXIM1 C18 (UniProt O94992) 0.398, TP53 C176 (UniProt P04637) 0.231, KIF4A C1224 (UniProt O95239) 0.387, ASS1 C132 (UniProt P00966) 0.124, UniProt O95551_C6 0.501
